Data reported in the supplement of paper PMC7666118.
Some of the results follow.

Chains of the proteins cited; added tags and fusions are not shown. Lines headed by an entry give the natural chain unless they say otherwise; changes in a name come on top.
UniProt Q9H6L4: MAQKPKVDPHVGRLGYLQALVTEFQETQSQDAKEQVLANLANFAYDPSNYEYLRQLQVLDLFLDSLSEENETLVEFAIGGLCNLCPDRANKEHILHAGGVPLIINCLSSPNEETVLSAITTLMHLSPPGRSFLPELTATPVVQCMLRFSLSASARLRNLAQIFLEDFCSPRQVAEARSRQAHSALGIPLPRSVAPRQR
UniProt O60306: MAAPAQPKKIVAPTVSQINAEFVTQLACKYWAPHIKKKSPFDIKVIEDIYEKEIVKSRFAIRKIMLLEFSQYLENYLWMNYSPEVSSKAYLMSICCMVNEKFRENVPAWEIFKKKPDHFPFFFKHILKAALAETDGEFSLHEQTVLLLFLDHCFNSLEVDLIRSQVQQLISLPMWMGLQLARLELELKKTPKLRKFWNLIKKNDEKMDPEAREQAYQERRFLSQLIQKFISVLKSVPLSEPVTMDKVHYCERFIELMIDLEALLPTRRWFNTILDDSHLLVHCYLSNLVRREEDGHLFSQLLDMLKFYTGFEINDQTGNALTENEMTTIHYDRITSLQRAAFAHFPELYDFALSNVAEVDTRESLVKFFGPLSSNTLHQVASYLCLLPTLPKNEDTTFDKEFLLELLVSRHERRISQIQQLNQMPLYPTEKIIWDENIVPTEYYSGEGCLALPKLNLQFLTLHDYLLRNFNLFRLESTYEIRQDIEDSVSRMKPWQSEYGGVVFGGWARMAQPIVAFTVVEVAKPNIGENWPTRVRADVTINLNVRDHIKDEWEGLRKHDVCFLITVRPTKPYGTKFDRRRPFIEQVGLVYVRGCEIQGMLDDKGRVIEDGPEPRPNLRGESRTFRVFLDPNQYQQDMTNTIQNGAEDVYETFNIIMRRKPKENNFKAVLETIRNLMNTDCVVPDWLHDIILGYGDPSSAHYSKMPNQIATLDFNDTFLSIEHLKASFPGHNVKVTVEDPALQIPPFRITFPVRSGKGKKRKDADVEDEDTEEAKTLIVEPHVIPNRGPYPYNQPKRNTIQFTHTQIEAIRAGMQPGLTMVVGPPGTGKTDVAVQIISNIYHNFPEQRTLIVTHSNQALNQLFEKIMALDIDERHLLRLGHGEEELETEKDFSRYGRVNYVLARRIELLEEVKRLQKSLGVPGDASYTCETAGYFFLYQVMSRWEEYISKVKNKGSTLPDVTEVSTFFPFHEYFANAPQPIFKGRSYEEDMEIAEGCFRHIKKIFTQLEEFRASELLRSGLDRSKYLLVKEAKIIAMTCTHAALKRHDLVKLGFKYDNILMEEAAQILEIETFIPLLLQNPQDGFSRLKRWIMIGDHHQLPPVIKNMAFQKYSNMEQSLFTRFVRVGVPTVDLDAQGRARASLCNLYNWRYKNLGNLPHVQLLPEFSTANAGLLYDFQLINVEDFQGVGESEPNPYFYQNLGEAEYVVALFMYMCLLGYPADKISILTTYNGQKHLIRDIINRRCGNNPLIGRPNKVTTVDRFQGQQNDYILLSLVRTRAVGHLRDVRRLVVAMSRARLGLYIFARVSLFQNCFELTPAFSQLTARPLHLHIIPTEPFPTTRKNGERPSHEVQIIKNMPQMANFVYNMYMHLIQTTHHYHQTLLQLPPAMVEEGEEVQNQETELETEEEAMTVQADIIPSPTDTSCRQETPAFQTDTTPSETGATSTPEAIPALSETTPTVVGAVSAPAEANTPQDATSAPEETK
UniProt Q92688: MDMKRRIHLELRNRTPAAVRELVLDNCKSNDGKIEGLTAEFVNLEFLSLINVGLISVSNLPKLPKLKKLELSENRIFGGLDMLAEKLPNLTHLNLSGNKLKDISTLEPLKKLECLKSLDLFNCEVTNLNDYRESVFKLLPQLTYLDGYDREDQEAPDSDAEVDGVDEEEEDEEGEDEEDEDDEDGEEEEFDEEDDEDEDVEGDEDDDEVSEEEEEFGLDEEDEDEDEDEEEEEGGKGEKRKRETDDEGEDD
UniProt Q96BY7: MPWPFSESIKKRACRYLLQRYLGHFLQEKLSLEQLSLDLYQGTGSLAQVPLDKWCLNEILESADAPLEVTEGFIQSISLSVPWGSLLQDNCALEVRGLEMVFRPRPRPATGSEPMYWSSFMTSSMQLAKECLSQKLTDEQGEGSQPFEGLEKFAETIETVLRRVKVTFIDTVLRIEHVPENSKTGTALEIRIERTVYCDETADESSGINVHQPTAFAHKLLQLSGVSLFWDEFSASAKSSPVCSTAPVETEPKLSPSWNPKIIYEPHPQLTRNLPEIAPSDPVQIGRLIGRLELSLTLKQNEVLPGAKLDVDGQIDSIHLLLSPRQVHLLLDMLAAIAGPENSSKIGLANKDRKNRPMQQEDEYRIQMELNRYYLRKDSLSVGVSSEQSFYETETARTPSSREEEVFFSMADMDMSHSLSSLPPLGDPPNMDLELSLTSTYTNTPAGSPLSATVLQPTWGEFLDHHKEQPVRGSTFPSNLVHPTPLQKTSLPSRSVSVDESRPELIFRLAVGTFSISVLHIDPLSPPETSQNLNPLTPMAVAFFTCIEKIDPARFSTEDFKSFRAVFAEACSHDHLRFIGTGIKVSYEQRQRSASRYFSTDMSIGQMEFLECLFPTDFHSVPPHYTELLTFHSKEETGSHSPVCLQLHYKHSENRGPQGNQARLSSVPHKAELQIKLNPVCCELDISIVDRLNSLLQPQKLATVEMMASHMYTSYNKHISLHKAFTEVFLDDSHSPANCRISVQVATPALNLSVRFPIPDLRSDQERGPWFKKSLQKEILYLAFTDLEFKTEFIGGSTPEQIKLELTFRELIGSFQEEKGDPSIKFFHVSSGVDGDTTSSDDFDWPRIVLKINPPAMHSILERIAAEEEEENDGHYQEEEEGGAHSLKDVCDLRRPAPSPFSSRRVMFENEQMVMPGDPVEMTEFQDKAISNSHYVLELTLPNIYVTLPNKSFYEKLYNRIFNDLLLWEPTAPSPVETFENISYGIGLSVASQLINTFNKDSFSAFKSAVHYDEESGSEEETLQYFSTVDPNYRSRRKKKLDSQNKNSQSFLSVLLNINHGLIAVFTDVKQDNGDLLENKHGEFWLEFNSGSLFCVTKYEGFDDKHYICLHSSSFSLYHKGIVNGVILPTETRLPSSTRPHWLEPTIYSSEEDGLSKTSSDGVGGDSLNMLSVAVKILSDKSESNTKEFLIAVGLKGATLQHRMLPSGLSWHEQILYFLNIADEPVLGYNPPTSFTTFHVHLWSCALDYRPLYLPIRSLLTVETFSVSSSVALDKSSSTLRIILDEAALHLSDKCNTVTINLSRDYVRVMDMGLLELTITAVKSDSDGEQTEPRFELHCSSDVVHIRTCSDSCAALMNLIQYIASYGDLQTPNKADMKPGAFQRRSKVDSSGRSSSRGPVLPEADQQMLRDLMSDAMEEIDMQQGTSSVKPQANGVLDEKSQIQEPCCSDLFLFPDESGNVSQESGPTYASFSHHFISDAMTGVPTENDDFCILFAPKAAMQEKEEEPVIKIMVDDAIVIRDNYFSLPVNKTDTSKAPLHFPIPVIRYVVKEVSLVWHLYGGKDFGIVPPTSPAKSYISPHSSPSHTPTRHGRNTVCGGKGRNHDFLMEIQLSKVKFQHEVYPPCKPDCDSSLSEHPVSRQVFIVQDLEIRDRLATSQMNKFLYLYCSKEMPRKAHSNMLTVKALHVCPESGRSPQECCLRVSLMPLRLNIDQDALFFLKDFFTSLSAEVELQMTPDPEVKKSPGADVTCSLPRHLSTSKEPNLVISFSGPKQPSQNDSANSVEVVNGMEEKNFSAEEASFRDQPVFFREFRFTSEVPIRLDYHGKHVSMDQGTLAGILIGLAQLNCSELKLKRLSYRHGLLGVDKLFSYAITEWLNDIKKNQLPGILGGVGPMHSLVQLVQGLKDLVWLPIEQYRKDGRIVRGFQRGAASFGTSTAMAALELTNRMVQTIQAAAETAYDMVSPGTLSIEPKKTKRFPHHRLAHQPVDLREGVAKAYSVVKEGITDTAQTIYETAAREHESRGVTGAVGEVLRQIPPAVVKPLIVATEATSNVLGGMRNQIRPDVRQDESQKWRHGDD
UniProt P84085: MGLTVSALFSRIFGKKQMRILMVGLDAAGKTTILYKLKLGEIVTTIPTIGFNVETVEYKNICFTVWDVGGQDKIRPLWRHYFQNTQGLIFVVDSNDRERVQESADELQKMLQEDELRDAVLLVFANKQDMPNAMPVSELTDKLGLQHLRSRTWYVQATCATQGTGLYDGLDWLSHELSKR
UniProt Q8NB46: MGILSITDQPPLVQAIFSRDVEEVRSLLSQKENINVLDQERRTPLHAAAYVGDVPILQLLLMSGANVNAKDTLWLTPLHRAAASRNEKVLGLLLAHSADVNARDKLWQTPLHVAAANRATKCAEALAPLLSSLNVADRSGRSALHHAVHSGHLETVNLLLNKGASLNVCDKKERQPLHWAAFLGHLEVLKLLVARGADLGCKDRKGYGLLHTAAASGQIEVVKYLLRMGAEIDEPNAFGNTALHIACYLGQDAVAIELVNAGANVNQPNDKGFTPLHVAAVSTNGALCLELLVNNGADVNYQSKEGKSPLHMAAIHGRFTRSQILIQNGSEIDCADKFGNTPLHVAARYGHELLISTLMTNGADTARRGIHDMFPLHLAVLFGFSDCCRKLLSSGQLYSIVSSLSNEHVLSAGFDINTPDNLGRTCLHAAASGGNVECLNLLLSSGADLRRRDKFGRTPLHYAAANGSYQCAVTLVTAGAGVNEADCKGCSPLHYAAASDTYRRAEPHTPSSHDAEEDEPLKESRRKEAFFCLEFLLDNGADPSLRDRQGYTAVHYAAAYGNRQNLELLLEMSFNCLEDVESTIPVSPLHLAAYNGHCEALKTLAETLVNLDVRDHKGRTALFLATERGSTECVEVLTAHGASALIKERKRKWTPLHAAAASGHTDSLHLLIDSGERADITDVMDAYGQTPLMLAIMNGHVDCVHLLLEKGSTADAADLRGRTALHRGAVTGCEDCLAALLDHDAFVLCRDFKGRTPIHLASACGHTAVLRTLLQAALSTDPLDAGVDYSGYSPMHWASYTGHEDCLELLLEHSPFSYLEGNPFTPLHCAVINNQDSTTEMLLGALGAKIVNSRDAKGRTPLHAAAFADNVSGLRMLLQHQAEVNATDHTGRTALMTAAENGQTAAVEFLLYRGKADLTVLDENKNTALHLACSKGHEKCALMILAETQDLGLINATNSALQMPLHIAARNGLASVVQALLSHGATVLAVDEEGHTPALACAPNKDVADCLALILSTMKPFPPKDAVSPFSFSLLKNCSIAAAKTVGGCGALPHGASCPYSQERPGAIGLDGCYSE
UniProt O14727: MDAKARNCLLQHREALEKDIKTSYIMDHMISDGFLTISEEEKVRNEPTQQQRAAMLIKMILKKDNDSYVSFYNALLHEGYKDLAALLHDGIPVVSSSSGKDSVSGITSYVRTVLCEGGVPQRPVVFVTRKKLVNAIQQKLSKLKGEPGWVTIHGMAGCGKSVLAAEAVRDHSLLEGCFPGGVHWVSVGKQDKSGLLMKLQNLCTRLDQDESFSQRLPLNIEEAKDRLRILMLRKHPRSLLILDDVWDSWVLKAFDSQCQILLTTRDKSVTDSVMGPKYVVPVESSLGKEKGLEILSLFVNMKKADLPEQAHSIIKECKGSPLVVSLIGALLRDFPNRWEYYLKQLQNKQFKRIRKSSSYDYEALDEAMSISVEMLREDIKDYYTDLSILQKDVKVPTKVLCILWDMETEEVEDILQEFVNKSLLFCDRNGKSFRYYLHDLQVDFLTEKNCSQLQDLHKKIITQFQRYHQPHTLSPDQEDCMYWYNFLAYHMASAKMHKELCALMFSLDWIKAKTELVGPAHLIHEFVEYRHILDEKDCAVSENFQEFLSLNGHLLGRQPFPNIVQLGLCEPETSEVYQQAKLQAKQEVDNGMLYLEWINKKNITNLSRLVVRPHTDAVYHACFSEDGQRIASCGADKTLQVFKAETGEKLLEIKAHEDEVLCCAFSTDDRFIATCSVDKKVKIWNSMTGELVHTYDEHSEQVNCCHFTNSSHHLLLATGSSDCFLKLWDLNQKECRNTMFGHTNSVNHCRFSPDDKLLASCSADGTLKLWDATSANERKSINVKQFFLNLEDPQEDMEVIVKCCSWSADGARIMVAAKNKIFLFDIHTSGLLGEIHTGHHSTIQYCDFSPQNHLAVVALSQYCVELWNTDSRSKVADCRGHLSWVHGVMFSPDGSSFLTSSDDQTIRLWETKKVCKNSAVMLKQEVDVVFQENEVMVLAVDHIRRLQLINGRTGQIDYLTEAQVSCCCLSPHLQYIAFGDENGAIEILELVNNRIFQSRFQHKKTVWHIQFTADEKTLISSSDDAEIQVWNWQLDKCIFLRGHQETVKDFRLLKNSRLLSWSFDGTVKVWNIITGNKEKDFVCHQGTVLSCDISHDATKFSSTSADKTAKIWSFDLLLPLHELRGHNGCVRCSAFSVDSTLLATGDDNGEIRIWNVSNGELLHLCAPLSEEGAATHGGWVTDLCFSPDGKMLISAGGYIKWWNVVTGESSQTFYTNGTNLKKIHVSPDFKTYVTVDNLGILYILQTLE

compound: COc1ccc(Cn2ccc3cc(C)c(C(=O)NO)cc32)cc1; experiment: dose-dependent thermal stabilisation call (2D-TPP, DLPTP, 10% FDR) (binary (1 = stabilised)); higher = stabilised by the compound; conditions: system: HL-60 intact cells; concentration range 0.04-10 µM
Description: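 2D thermal proteome profiling in intact HL-60 cells treated with BRD-3811 (0, 0.04, 0.29, 2, 10 uM) for 90 min at 37 C, then heated 3 min at one of 12 temperatures (42-63.9 C). Soluble protein was quantified by TMT10 MS. The value is the DLPTP call of the paper: dose-dependent thermal stabilisation over all temperatures at 10% FDR (F-test of a dose-response against a flat model); one experiment, one call per tested protein.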

Q: Which “dose-dependent thermal stabilisation call” value does the source give for AIM1 here?
A: The value was inactive: 0.

Q: Which “dose-dependent thermal stabilisation call” value does the source give for ARMC7 (UniProt Q9H6L4) here?
A: The value was inactive: 0.

Q: For ANP32A (UniProt P39687), which “dose-dependent thermal stabilisation call” value is on record?
A: The value was inactive: 0.

Q: Which “dose-dependent thermal stabilisation call” value does the source give for AQR (UniProt O60306) here?
A: Its value is inactive: 0.

Q: AKIRIN2 (UniProt Q53H80) was tested. Which “dose-dependent thermal stabilisation call” value did it give?
A: Its value is inactive: 0.

Q: For ARFGAP3 (UniProt Q9NP61), which “dose-dependent thermal stabilisation call” value is on record?
A: Its value is inactive: 0.

Q: With ARHGAP15 (UniProt Q53QZ3) as the target, how does the “dose-dependent thermal stabilisation call” value read?
A: The value was inactive: 0.

Q: APH1A (UniProt Q96BI3) was tested. Which “dose-dependent thermal stabilisation call” value did it give?
A: Its value is inactive: 0.

Q: With ATG5 (UniProt Q9H1Y0) as the target, how does the “dose-dependent thermal stabilisation call” value read?
A: Its value is inactive: 0.

Q: ANP32B (UniProt Q92688) was tested. Which “dose-dependent thermal stabilisation call” value did it give?
A: Its value is inactive: 0.

Q: For ALMS1 (UniProt Q8TCU4), which “dose-dependent thermal stabilisation call” value is on record?
A: Its value is inactive: 0.

Q: With ARPC5 (UniProt O15511) as the target, how does the “dose-dependent thermal stabilisation call” value read?
A: The value was inactive: 0.

Q: Which “dose-dependent thermal stabilisation call” value does the source give for ATG2B (UniProt Q96BY7) here?
A: The value was inactive: 0.

Q: For ARF5 (UniProt P84085), which “dose-dependent thermal stabilisation call” value is on record?
A: The value was inactive: 0.

Q: For ARFGEF2 (UniProt Q9Y6D5), which “dose-dependent thermal stabilisation call” value is on record?
A: The value was inactive: 0.

Q: Which “dose-dependent thermal stabilisation call” value does the source give for ALDH9A1 (UniProt P49189) here?
A: Its value is inactive: 0.

Q: ALKBH3 (UniProt Q96Q83) was tested. Which “dose-dependent thermal stabilisation call” value did it give?
A: The value was inactive: 0.

Q: With ANKRD52 (UniProt Q8NB46) as the target, how does the “dose-dependent thermal stabilisation call” value read?
A: Its value is inactive: 0.

Q: With AKAP11 (UniProt Q9UKA4) as the target, how does the “dose-dependent thermal stabilisation call” value read?
A: The value was inactive: 0.

Q: With APOL2 (UniProt Q9BQE5) as the target, how does the “dose-dependent thermal stabilisation call” value read?
A: Its value is inactive: 0.

Q: Which “dose-dependent thermal stabilisation call” value does the source give for ATF6 (UniProt P18850) here?
A: The value was inactive: 0.

Q: For AGL (UniProt P35573), which “dose-dependent thermal stabilisation call” value is on record?
A: The value was inactive: 0.

Q: How did the “dose-dependent thermal stabilisation call” value turn out when ANAPC1 (UniProt Q9H1A4) was run?
A: The value was inactive: 0.

Q: With ATF7 (UniProt P17544) as the target, how does the “dose-dependent thermal stabilisation call” value read?
A: Its value is inactive: 0.

Q: How did the “dose-dependent thermal stabilisation call” value turn out when ALDH6A1 (UniProt Q02252) was run?
A: The value was inactive: 0.

Q: With AGPAT3 (UniProt Q9NRZ7) as the target, how does the “dose-dependent thermal stabilisation call” value read?
A: Its value is inactive: 0.

Q: How did the “dose-dependent thermal stabilisation call” value turn out when AP1G1 (UniProt O43747) was run?
A: Its value is inactive: 0.

Q: Which “dose-dependent thermal stabilisation call” value does the source give for ARL6IP6 (UniProt Q8N6S5) here?
A: Its value is inactive: 0.

Q: APAF1 (UniProt O14727) was tested. Which “dose-dependent thermal stabilisation call” value did it give?
A: Its value is inactive: 0.

Q: How did the “dose-dependent thermal stabilisation call” value turn out when ARID3A (UniProt Q99856) was run?
A: Its value is inactive: 0.

Q: Which “dose-dependent thermal stabilisation call” value does the source give for ARPC4 (UniProt P59998) here?
A: The value was inactive: 0.

Q: AGAP3 (UniProt Q96P47) was tested. Which “dose-dependent thermal stabilisation call” value did it give?
A: The value was inactive: 0.

Q: ANXA11 (UniProt P50995) was tested. Which “dose-dependent thermal stabilisation call” value did it give?
A: Its value is inactive: 0.

Q: With ARAF (UniProt P10398) as the target, how does the “dose-dependent thermal stabilisation call” value read?
A: The value was inactive: 0.

Q: How did the “dose-dependent thermal stabilisation call” value turn out when ARFRP1 (UniProt Q13795) was run?
A: The value was inactive: 0.

Q: Which “dose-dependent thermal stabilisation call” value does the source give for AP1M1 (UniProt Q9BXS5) here?
A: Its value is inactive: 0.

Q: AHCY (UniProt P23526) was tested. Which “dose-dependent thermal stabilisation call” value did it give?
A: Its value is inactive: 0.

Q: How did the “dose-dependent thermal stabilisation call” value turn out when AKAP2 was run?
A: Its value is inactive: 0.

Q: With ASPM (UniProt Q8IZT6) as the target, how does the “dose-dependent thermal stabilisation call” value read?
A: The value was inactive: 0.

Q: How did the “dose-dependent thermal stabilisation call” value turn out when ARID1A (UniProt O14497) was run?
A: Its value is inactive: 0.
